# In patent US8785452B2, “Anti-infective compounds” (priority 2008, dated 2014):
# Read-outs that look alike come from different tables or passages of the source.
# Test system: M. tuberculosis H37Rv-GFP
# Assay: microbe, parasite or virus in culture
# Format: cell-based
# Conditions: Mycobacterium tuberculosis, Macrophage
smiles,measurement,setting,value
COc1ccc(/C(C)=N\NC(=O)c2ccncc2)cc1 [IPK 000 219 29],inhibition at 20 µM,read-out: Primary QIM % Inhibition,107%
same,inhibition at 20 µM,read-out: QIM Confirm % Inhibition 20 uM,67.6%
